# From the supplement of paper PMC10973195
# ± gives the standard deviation of the averaged measurements. Some of the results follow. Values are raw readings; no control value is given beside them.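 In this assay, LPS from bacteria induces microglia-mediated neuronal death in a neuron–microglia–astrocyte co-culture, a model of inflammatory neurodegeneration. Compounds were compared against same-plate DMSO vehicle wells, with the SYK inhibitor BAY61-3606 as reference neuroprotective control.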
# What was measured:
# Conditions in all cases: 1 µM, treatment time 3 days
# [1] = test system: rat primary cerebellar neuron-glia coculture; assay: microglia count (IB4+) per image field (cells per field); higher = more microglia
# [2] = test system: rat primary cerebellar neuron-glia coculture; assay: necrotic cell count (DRAQ7+) per image field (cells per field); higher = more necrosis
# [3] = test system: rat primary cerebellar neuron-glia coculture; assay: live neuron count (NeuO+) per image field (cells per field); higher = more surviving neurons
# [4] = test system: rat primary cerebellar neuron-glia coculture; assay: median microglial FormFactor (circularity) per image (dimensionless (0-1)); higher = rounder, more ameboid microglia
Structure (SMILES),microglia count ([1]; LPS 0 ng/mL),microglia count ([1]; LPS 100 ng/mL),necrotic cell count ([2]; LPS 0 ng/mL),necrotic cell count ([2]; LPS 100 ng/mL),live neuron count ([3]; LPS 0 ng/mL),live neuron count ([3]; LPS 100 ng/mL),median microglial FormFactor ([4]; LPS 0 ng/mL),median microglial FormFactor ([4]; LPS 100 ng/mL)
COc1ccc(C(=O)C(=O)c2ccc(OC)cc2)cc1,169 ± 47,401 ± 88,84.1 ± 23,982 ± 330,2660 ± 380,612 ± 900,0.566 ± 0.074,0.65 ± 0.066
CCN(CC)CCOC(=O)C(c1ccccc1)c1ccccc1,179 ± 82,412 ± 78,96.3 ± 54,954 ± 410,2440 ± 550,228 ± 340,0.512 ± 0.083,0.706 ± 0.078
O=C(O)CCNc1cc(N2CCc3ccccc3CC2)nc(-c2ccccn2)n1,169 ± 82,456 ± 140,93.1 ± 38,854 ± 290,2520 ± 620,599 ± 610,0.517 ± 0.096,0.601 ± 0.079
CNCc1cc(=O)oc2cc(OCc3cccc(Cl)c3)ccc12,170 ± 49,463 ± 120,80.5 ± 33,893 ± 350,2700 ± 490,474 ± 660,0.541 ± 0.068,0.643 ± 0.068
Cc1noc(C)c1CC(=O)NCc1ccccc1Cl,167 ± 62,410 ± 100,83.2 ± 32,1020 ± 400,2630 ± 490,240 ± 240,0.58 ± 0.1,0.672 ± 0.06
O=C(O)c1cc2sccc2[nH]1,208 ± 120,525 ± 350,74.5 ± 17,927 ± 370,2600 ± 480,319 ± 240,0.531 ± 0.097,0.66 ± 0.06
CC(C)(F)C[C@H](N[C@@H](c1ccc(-c2ccc(S(C)(=O)=O)cc2)cc1)C(F)(F)F)C(=O)NC1(C#N)CC1,162 ± 32,493 ± 93,84.1 ± 27,880 ± 290,2640 ± 450,252 ± 260,0.536 ± 0.065,0.674 ± 0.051
CN1CCN(c2cc(-c3ccccc3)nc(N)n2)CC1,182 ± 60,451 ± 100,86.3 ± 35,952 ± 230,2600 ± 430,352 ± 310,0.557 ± 0.073,0.65 ± 0.062
CCN(CC)CCOc1ccc2c(c1)C(=O)c1cc(OCCN(CC)CC)ccc1-2,160 ± 40,432 ± 87,84 ± 27,1140 ± 370,2600 ± 420,206 ± 210,0.487 ± 0.1,0.663 ± 0.047
Clc1ccc(CNc2nccc(-c3ccc4[nH]ncc4c3)n2)cc1Cl,167 ± 38,434 ± 90,93.2 ± 42,1040 ± 320,2740 ± 540,353 ± 220,0.554 ± 0.12,0.657 ± 0.045
CC(C)C[C@H](NC(=O)[C@@H](O)[C@H](N)Cc1ccccc1)C(=O)O,155 ± 33,550 ± 320,85.6 ± 28,831 ± 420,2480 ± 450,219 ± 240,0.541 ± 0.085,0.692 ± 0.079
C[C@@H]1COCCN1c1cc(=O)n2c(n1)N(Cc1cncc(Cl)c1)[C@H](C(F)(F)F)CC2,111 ± 43,348 ± 56,213 ± 88,2990 ± 320,2640 ± 470,49.5 ± 28,0.663 ± 0.067,0.781 ± 0.036
C[C@H](NC(=O)Cc1ccc(-c2ccc3cccnc3n2)cc1)c1ccc(-c2ccc(F)c(C(F)(F)F)c2)cc1,185 ± 54,427 ± 78,85.1 ± 42,939 ± 270,2660 ± 710,469 ± 610,0.565 ± 0.1,0.647 ± 0.07
C[C@]12CC[C@@H]3c4ccc(O)cc4C[C@@H](CCCCCCCCC[S+]([O-])CCCC(F)(F)C(F)(F)F)[C@H]3[C@@H]1CC[C@@H]2O (some centres not stated),123 ± 26,645 ± 61,206 ± 45,121 ± 25,2570 ± 430,2600 ± 580,0.736 ± 0.088,0.479 ± 0.074
COC(=O)C1=C(C)NC(C)=C(C(=O)OCCN(C)Cc2ccccc2)C1c1cccc([N+](=O)[O-])c1 (configuration not stated),258 ± 97,410 ± 77,74.6 ± 27,929 ± 410,956 ± 370,291 ± 320,0.458 ± 0.071,0.685 ± 0.071
COc1ccc(CC(=O)NCc2ccccc2-c2ccccc2C(=O)NCc2ccc(F)cc2F)cc1,165 ± 41,492 ± 110,79.9 ± 37,827 ± 440,2650 ± 440,559 ± 620,0.545 ± 0.072,0.622 ± 0.088
O=C1NCCSc2c1sc1ccc(O)cc21,178 ± 60,419 ± 94,70.2 ± 18,1070 ± 260,3080 ± 300,572 ± 520,0.474 ± 0.076,0.64 ± 0.063
CNc1nc(NCc2ccc(NS(C)(=O)=O)cc2Cl)cc(-c2ccccn2)n1,207 ± 71,442 ± 86,66.8 ± 21,939 ± 580,2610 ± 590,684 ± 550,0.535 ± 0.06,0.635 ± 0.093
CC(C)(C)NC(=O)[C@H]1CC[C@H]2[C@@H]3CC[C@H]4NC(=O)C=C[C@]4(C)[C@H]3CC[C@]12C,178 ± 45,422 ± 88,82.8 ± 31,1040 ± 450,2620 ± 470,305 ± 260,0.545 ± 0.11,0.688 ± 0.06
O=c1c2ccccc2nc2n1CCc1c-2[nH]c2ccccc12,170 ± 74,414 ± 97,89.8 ± 44,1120 ± 370,2670 ± 570,172 ± 180,0.563 ± 0.09,0.703 ± 0.045
Cn1nc(-c2ccccn2)nc2c(=O)n(C)c(=O)nc1-2,175 ± 33,466 ± 140,83.6 ± 35,916 ± 300,2490 ± 410,158 ± 210,0.504 ± 0.071,0.663 ± 0.053
CNC[C@H](O)c1ccc(O)c(O)c1,102 ± 37,469 ± 84,152 ± 40,124 ± 57,2650 ± 490,2410 ± 590,0.594 ± 0.068,0.597 ± 0.046
Cc1ccc(C(=O)N(CCCN)[C@@H](c2nc3cc(Cl)ccc3c(=O)n2Cc2ccccc2)C(C)C)cc1,208 ± 68,384 ± 73,85.2 ± 26,869 ± 330,1990 ± 380,294 ± 320,0.453 ± 0.082,0.701 ± 0.084
CC#CCn1c(N2CCC[C@@H](N)C2)nc2c1c(=O)n(Cc1nc(C)c3ccccc3n1)c(=O)n2C,195 ± 72,448 ± 98,86.3 ± 43,773 ± 270,2630 ± 450,592 ± 710,0.562 ± 0.087,0.626 ± 0.11

# In a second layout: two of the compounds above
Structure (SMILES) | microglia count ([1]; LPS 0 ng/mL) | microglia count ([1]; LPS 100 ng/mL) | necrotic cell count ([2]; LPS 0 ng/mL) | necrotic cell count ([2]; LPS 100 ng/mL) | live neuron count ([3]; LPS 0 ng/mL) | live neuron count ([3]; LPS 100 ng/mL) | median microglial FormFactor ([4]; LPS 0 ng/mL) | median microglial FormFactor ([4]; LPS 100 ng/mL)
CC(C)C[C@H](NC(=O)[C@@H](O)[C@H](N)Cc1ccccc1)C(=O)O | 155 ± 33 | 550 ± 320 | 85.6 ± 28 | 831 ± 420 | 2480 ± 450 | 219 ± 240 | 0.541 ± 0.085 | 0.692 ± 0.079
C[C@]12CC[C@@H]3c4ccc(O)cc4C[C@@H](CCCCCCCCC[S+]([O-])CCCC(F)(F)C(F)(F)F)[C@H]3[C@@H]1CC[C@@H]2O (some centres not stated) | 123 ± 26 | 645 ± 61 | 206 ± 45 | 121 ± 25 | 2570 ± 430 | 2600 ± 580 | 0.736 ± 0.088 | 0.479 ± 0.074
